Data as given in PubChem BioAssay AID602196 (INSERM, 2012)
Assay: 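Genes whose knock-down alters cisplatin killing of lung cancer cells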. System: human A549 lung cancer cells. Reagent: siRNA pair against human genes. Duration: 48 h transfection before cisplatin; time from cisplatin to read-out not stated. Challenge: cisplatin at a dose killing half of control-siRNA cells; exact dose and duration not given. Measured: 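Cisplatin cell death as a shift from the 50% death seen with control siRNA; siRNAs toxic or growth-blocking alone scored 0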. Reading the numbers: two-siRNA summed score (-2 to +2): higher = both siRNAs protect from cisplatin killing; -2 means both sensitise; mean protection from cisplatin (shift in death) and protection from cisplatin (shift in death), siRNA C and protection from cisplatin (shift in death), siRNA D: higher = protection from cisplatin killing. Call rule: 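Each siRNA scores 0 if harmful alone by LDH or WST-1, otherwise +1 if it reduces and -1 if it increases cisplatin killing; a gene is active when both siRNAs agree (sum +2 or -2)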. Meaning of the calls: active = both siRNAs shift cisplatin killing the same way; inactive = no consistent shift, or siRNA harmful alone.
This is one part, drawn at random, of about 23,000 reagents tested. Of all reagents, 455 (2%) are marked active. 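Active includes both protection and sensitisation; some change values fall well beyond the stated -50 to +50 range.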 Entries without a mark were called inactive. Not given: the amount of reagent.

no.	gene symbol	two-siRNA summed score (-2 to +2)	mean protection from cisplatin (shift in death) (%)	protection from cisplatin (shift in death), siRNA C (%)	protection from cisplatin (shift in death), siRNA D (%)
1	NUDT18	0	3.1	6.6	-0.3
2	PCSK2	0	10.3	13.9	6.7
3	C6orf141	1	5.2	7.4	3
4	KIAA1126	0	3.8	12.1	-4.5
5	RNF148	0	3.5	4.9	2.1
6	ATG5	0	2.3	8.7	-4.2
7	PRAC2	2 (active)	19.6	24.7	14.6
8	GDAP1	1	9.3	-9.3	28
9	LOC401905	0	5.6	4.3	7
10	ZAP70	0	-2.8	1.3	-6.8
11	MOB3A	0	-1.2	4.2	-6.6
12	FLOT1	0	0.7	1.6	-0.1
13	LOC391717	0	6.9	5.3	8.6
14	ZNF419	0	-7.5	-4.5	-10.6
15	CDC23	-1	-13.7	-7.9	-19.6
16	ZNF624	0	-4.6	-0.8	-8.4
17	VANGL1	0	11.1	13.2	9.1
18	SSU72	0	-11.1	-5.5	-16.7
19	COG2	-1	-15.8	-27	-4.6
20	HDGFL1	-1	-5	-17.4	7.4
21	ZNF445	1	10.9	1.2	20.6
22	TFAP2E	0	6.2	7	5.4
23	H2AC8	0	0.5	-6.9	8
